Data as given in PubChem BioAssay AID720505 (Drosophila RNAi Screening Center, 2013)

Purpose: 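Genes needed for store-operated calcium entry in fly cells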 (primary screen)
Cells: Drosophila S2R+ cells
Reagent: long dsRNA against Drosophila genes
Treatment: thapsigargin (2 µM) in calcium-free buffer to empty internal stores, then 2 mM calcium added back
Measured: 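Stores emptied by 2 µM thapsigargin without calcium, then 2 mM calcium re-added; fluo-4 fluorescence followed by FLIPR in 384-well plates, per-well averaged endpoint, raw; two screen passes, some wells retested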
Reading the numbers: calcium signal: higher = more calcium entry after store depletion
Call rule: 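About 1500 genes called as lowering calcium entry, by varying amounts, judged against per-plate control wells with STIM1 as positive and Rho1 as negative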
Meaning of the calls: active = called as lowering calcium entry; inactive = not called
The deposit covers about 20,000 reagents; shown is a random part of those with a known target gene and a result. In the full data, about 2,100 (10%) got an active call. 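Raw plate signals without normalisation; calls rest on control-based scores that were not deposited; replicate 2 separates called from uncalled poorly.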 Unmarked entries are inactive. Names joined by + are all predicted targets of the reagent. No sequences are given here. Not stated in the record: the amount of reagent, the time to read-out.

| Target gene | dsRNA | calcium signal, replicate 1 | calcium signal, replicate 2 |
| --- | --- | --- | --- |
| Chpf | DRSC19491 | 87.4 | 99.7 |
| Chpf | DRSC19893 | 195 | 131 |
| Dhc1 | DRSC16503 | 160 | 98.7 |
| CG43308 | DRSC05893 | 63.7 | 94.1 |
| ric8b + ric8a | DRSC18104 | 98.6 | 90.1 |
| Polr1D + DCTN6-p27 | DRSC02094 | 192 | 73.5 |
| CG14868 | DRSC14991 | 82 | 154 |
| CG5070 | DRSC19932 | 85.6 | 89.3 |
| CG15563 | DRSC15101 | 105 | 96.9 |
| Tfb4 | DRSC00675 | 176 | 142 |
| Smurf | DRSC07641 | 127 | 159 |
| sunz | DRSC12559 | 121 | 149 |
| Hcs | DRSC12256 | 124 | 166 |
| CG31705 | DRSC01991 | 74.8 | 90.7 |
| DCTN1-p150 | DRSC11175 | 94.5 | 67.8 |
| aay | DRSC11320 | 96.2 | 157 |
| CG5089 | DRSC06914 | 140 | 89.3 |
| Tsp42Ek | DRSC06187 | 128 | 97.6 |
| mRpS34 | DRSC09918 | 87 | 151 |
| CG17683 | DRSC21160 | 158 | 93.8 |
| CG15202 | DRSC19649 | 122 | 85.4 |
| Jhbp11 | DRSC15183 | 174 | 141 |
| CG10353 | DRSC19354 | 75.1 (active) | 90.2 |
| Aldh-III | DRSC06047 | 61.9 (active) | 205 |
| CG17698 | DRSC11907 | 96.9 | 125 |
| CG4972 | DRSC02798 | 173 | 155 |
| CG6885 | DRSC10740 | 76.1 | 123 |
| CG10470 | DRSC02061 | 178 | 76.6 |
| Oseg4 | DRSC08548 | 177 | 126 |
| CG43123 | DRSC05049 | 86.9 | 120 |
| Kap-alpha3 | DRSC16976 | 194 | 124 |
| yin | DRSC18854 | 119 | 167 |
| yin | DRSC21889 | 115 | 227 |
| Tbcc | DRSC00223 | 129 | 122 |
| CanA-14F | DRSC20211 | 71.9 (active) | 117 |
| CanA-14F | DRSC23296 | 171 | 152 |
| DAAM | DRSC18479 | 110 | 159 |
| CG3285 | DRSC00589 | 119 | 222 |
| CG11975 | DRSC14452 | 108 | 171 |
| Doc2 | DRSC22716 | 137 | 206 |
| pip | DRSC11382 | 85 | 136 |
| CG14421 | DRSC17918 | 109 | 144 |
| CG10005 | DRSC14172 | 164 | 77 |
| Sytalpha | DRSC02869 | 130 | 95.6 |
| CG14456 | DRSC11713 | 73.8 | 94.7 |
| CG1688 | DRSC05934 | 165 | 193 |
| CG1688 | DRSC23207 | 114 | 145 |
| CG5068 | DRSC10476 | 66.7 (active) | 131 |
| rg | DRSC17726 | 97.8 | 86.2 |
| rg | DRSC18049 | 212 | 87.5 |
| ema | DRSC14536 | 58.6 | 129 |
| CG31673 | DRSC03207 | 95.9 | 126 |
| RpS3 | DRSC16838 | 130 (active) | 78.2 |
| CG17118 | DRSC02579 | 76.9 | 95.1 |
| Ssu72 | DRSC19572 | 241 | 81.8 |
| RpS9 | DRSC11273 | 67.1 (active) | 61.4 |

Reagents above called active, once more:
| Target gene | dsRNA | calcium signal, replicate 1 | calcium signal, replicate 2 |
| --- | --- | --- | --- |
| CG10353 | DRSC19354 | 75.1 (active) | 90.2 |
| Aldh-III | DRSC06047 | 61.9 (active) | 205 |
| CanA-14F | DRSC20211 | 71.9 (active) | 117 |
| CG5068 | DRSC10476 | 66.7 (active) | 131 |
| RpS3 | DRSC16838 | 130 (active) | 78.2 |
| RpS9 | DRSC11273 | 67.1 (active) | 61.4 |
